Laboratory results: PubChem BioAssay AID743121 (NCATS, 2013)
Assay: 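Genes whose silencing strengthens cell killing by camptothecin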 (primary screen). Cell system: MDA-MB-231 cells, a human breast cancer line. Knock-down reagent: single siRNA against human genes, 20 nM siRNA (0.8 pmol per well). Duration: 120 h (drug added 48 h after transfection, read 72 h later). Conditions: camptothecin 20 nM (about EC30) for 72 h; vehicle 0.1% DMSO in parallel plates. Measurement: 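CellTiter-Glo ATP signal, scaled to control siRNA as percent viability; sensitisation given as log2 of untreated divided by camptothecin-treated viability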. Direction: log2 vehicle/camptothecin viability: higher = stronger sensitisation to camptothecin. Hit rule: 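Active genes have an RSA gene-level p-value below 0.001, computed from the ratios of their separate siRNAs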.
The deposit covers about 26,000 reagents; below is a part drawn at random. 167 of all reagents (0.63%) were called active. 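Calls are per gene from RSA p-values that are not deposited; an individual active-marked siRNA can sensitise only weakly.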 Reagents against one gene are numbered here. Not all columns of the deposit are shown. Reagent sequences are not shown.

What is on record for MLYCD #1?
log2 vehicle/camptothecin viability: -0.41; Call: inactive

How did the screen score MLYCD #2?
log2 vehicle/camptothecin viability: 0.508; Call: inactive

For MLYCD #3, what does the deposit list?
log2 vehicle/camptothecin viability: 0.0619; Call: inactive

For MLYCD #4, how do the results read?
log2 vehicle/camptothecin viability: -0.16; Call: inactive

What is on record for PROK2 #1?
log2 vehicle/camptothecin viability: -0.291; Call: inactive

What did the screen give for PROK2 #2?
log2 vehicle/camptothecin viability: 0.0335; Call: inactive

With PROK2 #3, how do the results read?
log2 vehicle/camptothecin viability: -0.295; Call: inactive

Which result is listed for PROK2 #4?
log2 vehicle/camptothecin viability: -0.24; Call: inactive

What did the screen give for RACGAP1 #1?
log2 vehicle/camptothecin viability: -0.0404; Call: inactive

What did the screen give for RACGAP1 #2?
log2 vehicle/camptothecin viability: -0.134; Call: inactive

Which result is listed for RACGAP1 #3?
log2 vehicle/camptothecin viability: 0.211; Call: inactive

With RACGAP1 #4, what was measured?
log2 vehicle/camptothecin viability: -0.578; Call: inactive

Which result is listed for PCDH15 #1?
log2 vehicle/camptothecin viability: 0.114; Call: inactive

How did the screen score PCDH15 #2?
log2 vehicle/camptothecin viability: -0.274; Call: inactive

What did the screen give for PCDH15 #3?
log2 vehicle/camptothecin viability: 0.75; Call: inactive

For PCDH15 #4, how do the results read?
log2 vehicle/camptothecin viability: -0.256; Call: inactive

What did the screen give for FBXO44 #1?
log2 vehicle/camptothecin viability: 0.0275; Call: inactive

With FBXO44 #2, what was measured?
log2 vehicle/camptothecin viability: -0.182; Call: inactive

With FBXO44 #3, what was measured?
log2 vehicle/camptothecin viability: 0.371; Call: inactive

How did the screen score RDH10 #1?
log2 vehicle/camptothecin viability: 0.0397; Call: inactive

What is on record for RDH10 #2?
log2 vehicle/camptothecin viability: -0.241; Call: inactive

Which result is listed for RDH10 #3?
log2 vehicle/camptothecin viability: -0.0837; Call: inactive

Which result is listed for RDH10 #4?
log2 vehicle/camptothecin viability: -0.0633; Call: inactive

Copied from the list.
Value for RDH10 #3 under “Call”: inactive
Under “log2 vehicle/camptothecin viability”, RDH10 #4 shows -0.0633

Next results follow.
What did the screen give for LRRC2 #1?
log2 vehicle/camptothecin viability: -0.309; Call: inactive

What is on record for LRRC2 #2?
log2 vehicle/camptothecin viability: 0.172; Call: inactive

With LRRC2 #3, what does the deposit list?
log2 vehicle/camptothecin viability: -0.344; Call: inactive

What did the screen give for LRRC2 #4?
log2 vehicle/camptothecin viability: -0.232; Call: inactive

What did the screen give for PMS2P5 #1?
log2 vehicle/camptothecin viability: -0.196; Call: inactive

For PMS2P5 #2, how do the results read?
log2 vehicle/camptothecin viability: -0.117; Call: inactive

How did the screen score TFAP4 #1?
log2 vehicle/camptothecin viability: -0.142; Call: inactive

How did the screen score TFAP4 #2?
log2 vehicle/camptothecin viability: -0.379; Call: inactive

With TFAP4 #3, what does the deposit list?
log2 vehicle/camptothecin viability: -0.44; Call: inactive

With TFAP4 #4, what was measured?
log2 vehicle/camptothecin viability: -0.177; Call: inactive

With SLC9A1 #1, how do the results read?
log2 vehicle/camptothecin viability: 0.0154; Call: inactive

What did the screen give for SLC9A1 #2?
log2 vehicle/camptothecin viability: 0.0837; Call: inactive

For SLC9A1 #3, what does the deposit list?
log2 vehicle/camptothecin viability: -0.172; Call: inactive

What did the screen give for SLC9A1 #4?
log2 vehicle/camptothecin viability: -0.566; Call: inactive
